Assay results from article PMC6329097.
Results are given in words; binding and its absence hold for the method and conditions named. In cells and extracts the contact can be indirect. Some binding calls cover weakened binding; strength is not graded here.

Molecular target: T1, peroxisome proliferators-activated receptor α (rat (endogenous in H9c2)) (UniProt P37230)
T1 sequence: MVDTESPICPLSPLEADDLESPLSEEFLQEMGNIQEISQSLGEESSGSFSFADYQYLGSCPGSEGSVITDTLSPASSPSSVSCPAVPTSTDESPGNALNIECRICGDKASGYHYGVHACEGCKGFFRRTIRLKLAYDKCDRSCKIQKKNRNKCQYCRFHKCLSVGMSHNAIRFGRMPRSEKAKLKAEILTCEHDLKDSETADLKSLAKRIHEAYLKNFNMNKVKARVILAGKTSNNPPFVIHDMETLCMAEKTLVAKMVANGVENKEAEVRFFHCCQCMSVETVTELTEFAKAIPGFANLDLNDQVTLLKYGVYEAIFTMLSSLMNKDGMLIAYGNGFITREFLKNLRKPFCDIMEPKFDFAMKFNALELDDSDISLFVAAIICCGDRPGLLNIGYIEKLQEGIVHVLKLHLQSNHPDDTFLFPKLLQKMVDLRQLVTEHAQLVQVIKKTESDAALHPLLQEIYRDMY
Test: co-IP; immunoprecipitation with the anti-PPARα or the anti-PGC-1β antibody in H9c2 cells, followed by Western blotting for PPARα and PGC-1β

binding: binds
B1: peroxisome proliferator-activated receptor γ coactivator 1β (protein, UniProt Q811R2 1-1010)
chain: MAGNDCGALLDEELSSFFLNYLSDTQGGESGEEQLCADLPELDLSQLDASDFDSATCFGELQWCPETSETEPSQYSPDDSEFFQIDSENEALLAALTKTLDDIPEDDVGLAAFPGLDEGDTPSCTPASPAPLSVPPSPALERLLSPVSEVDELSLLQKLLLATSSPTASSDALKDGATWSQTSLSSRSQRPCVKVDGTQDKKTPMLRSQSRPCTELHKHLTSVLPCPRGKACSPPPHPSPQLLSKEDEEVGEDCPSPWPAPASPQDSLGQDTANPNSAQVPKDDVRAMVQLIRYMHTYCLPQRKLPQRASEPIPQSCSSPLRKVPPRSRQTPKAFWTEFSILRELLAQDILCDVSKPYRLATPVYASLTPQSRTRPPKDSQASPAHSAMAEEVRITASPKSTGPRPSLRPLRLEVKRDVNKPARQKREEDEEEEEEEEEEEEKEDEEEEWGRKRPGRGLPWTKLGRKMDSSVCPVRRSRRLNPELGPWLTFTDEPLGALPSMCLATETHDLEEELGGLTDSSQGQQLPLGSQIPTLESPCESGCGDTDEDPSCPRPPSRDSPRCLMLALSQSDPLGKKSFEESLTVELCGTAGLTPPTTPPYKPMEEDPFKQDTKHSPGQDTAPSLPSPETLQLTATPGASHKLPKRHPERSELLSHLQHATTQPVSQAGQKRPFSCSFGDHDYCQVIRPEAALQRKVLRSWEPIKVHLEDLAHQGATLPVETKTPRREADQNCDPTPKDSMQLRDHEIRASLTKHFGLLETALEEEDLASCKSPEYDTVFEDSSSSSGESSFLLEEEEEEGGEEDDEGEDSGVSPPCSDHCPYQSPPSKASRQLCSRSRSSSGSSSCSSWSPATRKNFRLESRGPCSDGTPSARHAKKRREKAIGEGRVVYIRNLSGDMSSRELKKRFEVFGEIVECQVLRRSKRGQKHGFITFRCSEHAALSVRNGATLRKRNEPSFHLSYGGLRHFRWPRYTDYDPTSEESLPSSGKSKYEAMDFDSLLKEAQQSLH
